Assay results as given in publication PMC7617243.
Results are given in words; binding and its absence hold for the method and conditions named. In cells and extracts the contact can be indirect. These calls come from enrichment with a bait or labelling near it, and not all partners need be listed.

Sequences of proteins named here, by UniProt entry; tags and fusion partners are left off.
UniProt Q6PD10: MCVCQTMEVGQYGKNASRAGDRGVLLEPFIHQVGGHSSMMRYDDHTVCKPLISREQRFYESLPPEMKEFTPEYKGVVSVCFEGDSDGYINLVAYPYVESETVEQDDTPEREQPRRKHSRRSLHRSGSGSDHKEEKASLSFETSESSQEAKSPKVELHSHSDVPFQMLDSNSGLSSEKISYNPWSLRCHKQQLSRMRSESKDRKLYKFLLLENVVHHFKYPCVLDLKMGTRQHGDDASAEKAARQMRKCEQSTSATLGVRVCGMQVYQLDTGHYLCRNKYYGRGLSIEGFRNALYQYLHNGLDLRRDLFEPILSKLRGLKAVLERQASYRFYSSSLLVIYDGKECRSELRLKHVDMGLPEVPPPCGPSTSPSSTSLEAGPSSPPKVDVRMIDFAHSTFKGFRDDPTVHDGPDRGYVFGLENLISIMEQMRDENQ

Target: Inositol hexakisphosphate kinase 1 (IP6K1), endogenous (mouse (endogenous in primary murine hepatocytes)) (UniProt Q6PD10)
Assay: affinity purification with mass spectrometry; endogenous IP6K1 immunoprecipitated in primary murine hepatocytes; protein electrophoresis, silver staining, band identified by mass spectrometry

B1: Ubiquitination factor E4A (UBE4A), endogenous (enzyme, UniProt E9Q735 1-1028)
chain: MTDQENNNNISSNPFAALFGSLADAKQFAAIQKEQLKQQSDELPASPDDSDNSVSESLDEFDYSVSEISRSFRTHQEMCEQLNINHMIQRIFLITLDNSDPSLKSGNGIPSRCVYLEEMAVELEDQDWLDMSNVEQAIFARLLLQDPGNHLISMTSSTTLNLSADRDAGERHIFCYLYSCFQRAKEEITKVPENLLPFAVQCRNLTVSNTRTVLLTPEIYVDQNIHEQLVDLMLEAIQGAHFEDVTEFLEEVIEALLLDEEVRTFPEVMIPVFDILLSRIKDLELCQILLYAYLDILLYFTRQKDMAKVFLEYIQPKDPSNGQMYQKTLLGVILNISCLLKTPGVVENHGFFLNPSRSSPQEIKVQEANIHQFMAQFHEKIYQMLKNLLQLSPETKHCILFWLGNCLHANAGRTKIWANQMPEIFFQMYASDAFFLNLGAALLKLCQPFCKPRSSRLLTFNPTYCVLKDLNDEERKIKSVHMRGLDKETCLIPAVQEPTFPQSYNLVTENLALTEYTLYLGFHRLHDQMVKINQNLHRLQVAWRDAQQSSSPAADNLREQFERLMTIYLSTKTAMTEPQMLQNCLNLQVSMAVLLVQLAIGNEGSQPIELSFPLPDGYSSLAYVPEFFADNLGDFLIFLRRFAEDILETSADSLEHVLHFITIFTGSIERMKNPHLRAKLAEVLEAVMPHLDQTPSPLVSSVFHRKRVFCNFPYAPQLAEALIKVFVDIEFTGDPHQFEQKFNYRRPMYPILRYMWGTDCYRESIKYLSKIKIQQIEKDRGEWESLTPEARREKEAGLQMFGQLARFHNIMSNETIGTLSFLTSEIKSLFVHPFLAERIISMLNYFLQHLVGPKMGALKVKDFSEFDFKPQQLVSDICTIYLNLGDEENFCATVPKDGRSYSPTLFAQTVRVLKKINKPGNMIVAFSNLAERIKSLADLQQQEEETYADACDEFLDPIMSTLMSDPVVLPSSRVTVDRSTIARHLLSDQTDPFNRSPLTMDQIRPNTELKEKIQRWLAERKQQKEQPE
- binding: binds
